The assay concerns the target T1, Polypeptide N-acetylgalactosaminyltransferase 7 (human (endogenous in THP-1)) (UniProt Q86SF2).
T1 sequence: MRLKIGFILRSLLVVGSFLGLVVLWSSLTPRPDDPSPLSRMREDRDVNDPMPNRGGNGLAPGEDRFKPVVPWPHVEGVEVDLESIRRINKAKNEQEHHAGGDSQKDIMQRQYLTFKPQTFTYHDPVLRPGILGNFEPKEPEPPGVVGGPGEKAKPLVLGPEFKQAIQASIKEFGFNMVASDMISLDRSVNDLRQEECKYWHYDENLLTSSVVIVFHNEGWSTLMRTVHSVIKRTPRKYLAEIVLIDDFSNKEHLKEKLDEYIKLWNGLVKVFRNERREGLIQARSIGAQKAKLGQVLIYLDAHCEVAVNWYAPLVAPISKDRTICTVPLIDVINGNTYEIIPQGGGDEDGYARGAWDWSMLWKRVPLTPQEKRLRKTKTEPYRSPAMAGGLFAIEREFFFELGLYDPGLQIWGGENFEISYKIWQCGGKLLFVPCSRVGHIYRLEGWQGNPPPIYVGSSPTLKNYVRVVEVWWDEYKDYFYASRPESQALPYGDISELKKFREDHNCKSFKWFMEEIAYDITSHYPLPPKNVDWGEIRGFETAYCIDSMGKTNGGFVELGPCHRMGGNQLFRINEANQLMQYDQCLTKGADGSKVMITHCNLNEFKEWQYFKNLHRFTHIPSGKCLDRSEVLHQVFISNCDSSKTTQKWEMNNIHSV
Kind of assay: co-IP; THP-1 cell lysates incubated with anti-GALNT7 or TSHR antibodies or normal IgG overnight at 4°C, then protein A/G agarose 4 h at 4°C; Western blot; whole-cell lysate as input. In general terms: In western blotting, separated proteins are transferred to a membrane and probed.

By UniProt entry, the sequences of proteins in these tests, tags left out. Residues count along the entry.
UniProt P16473, residues 21-764: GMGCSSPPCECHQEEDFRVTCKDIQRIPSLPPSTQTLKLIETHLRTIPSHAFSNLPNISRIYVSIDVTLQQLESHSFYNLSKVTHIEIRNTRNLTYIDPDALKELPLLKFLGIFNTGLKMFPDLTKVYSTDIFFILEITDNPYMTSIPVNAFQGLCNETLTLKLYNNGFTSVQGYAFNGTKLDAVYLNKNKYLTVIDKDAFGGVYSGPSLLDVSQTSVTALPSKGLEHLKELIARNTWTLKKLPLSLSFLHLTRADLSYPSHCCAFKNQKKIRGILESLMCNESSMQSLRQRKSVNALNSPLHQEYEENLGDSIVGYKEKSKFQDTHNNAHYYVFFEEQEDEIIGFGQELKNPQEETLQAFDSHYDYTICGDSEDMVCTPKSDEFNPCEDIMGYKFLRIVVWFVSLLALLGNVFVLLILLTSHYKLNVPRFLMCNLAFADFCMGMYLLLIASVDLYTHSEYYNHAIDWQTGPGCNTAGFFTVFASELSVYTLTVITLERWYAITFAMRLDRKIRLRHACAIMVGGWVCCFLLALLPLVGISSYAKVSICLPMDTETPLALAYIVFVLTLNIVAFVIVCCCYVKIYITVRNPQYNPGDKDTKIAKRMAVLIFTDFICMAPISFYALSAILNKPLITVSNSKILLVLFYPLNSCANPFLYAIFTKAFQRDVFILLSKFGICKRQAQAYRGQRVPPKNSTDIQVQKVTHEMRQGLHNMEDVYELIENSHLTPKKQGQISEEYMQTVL

No constants are given. Whether binding was seen depends on the method and setting. In cells and extracts the contact can be indirect. Some entries that bind do so weakly or less than the wild type.

Take “Thyroid stimulating hormone receptor (from UniProt P16473 21-764)”: the binding entry is listed as “binds”.
